What is called melting point is the temperature of the solid-liquid transition. For `O=C(Nc1ccc(OCc2ccccn2)nc1)N1CCc2cc(Br)ccc21`, the melting point lay in the range of 138 to 139 °C.

The record behind these values is a melting point compilation (Tetko et al.; mined from patent text by program, amines drawn as free bases though some values may be those of a salt).
